Data reported in the supplement of paper PMC12823440, “Inhibitors supercharge kinase turnover through native proteolytic circuits” (Nature, 2025).
Counter-ions that a name gives are not always drawn. The list shows a part of the results. The calls rarely recur for the same compound in another form.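 Kinases, fused to nanoluciferase, were expressed in K562 cells; luminescence was measured every 4 h from 2 to 18 h as percent of control (DMSO = 100%, positive control = 0%). A time point is decreased if signal falls significantly (2 sigma). Hits were called by the authors by a rule that is not shown; the count of time points alone does not decide it.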

Amino acid sequences for entries named in this document (tags omitted).
UniProt P42356, whole entry, looked up: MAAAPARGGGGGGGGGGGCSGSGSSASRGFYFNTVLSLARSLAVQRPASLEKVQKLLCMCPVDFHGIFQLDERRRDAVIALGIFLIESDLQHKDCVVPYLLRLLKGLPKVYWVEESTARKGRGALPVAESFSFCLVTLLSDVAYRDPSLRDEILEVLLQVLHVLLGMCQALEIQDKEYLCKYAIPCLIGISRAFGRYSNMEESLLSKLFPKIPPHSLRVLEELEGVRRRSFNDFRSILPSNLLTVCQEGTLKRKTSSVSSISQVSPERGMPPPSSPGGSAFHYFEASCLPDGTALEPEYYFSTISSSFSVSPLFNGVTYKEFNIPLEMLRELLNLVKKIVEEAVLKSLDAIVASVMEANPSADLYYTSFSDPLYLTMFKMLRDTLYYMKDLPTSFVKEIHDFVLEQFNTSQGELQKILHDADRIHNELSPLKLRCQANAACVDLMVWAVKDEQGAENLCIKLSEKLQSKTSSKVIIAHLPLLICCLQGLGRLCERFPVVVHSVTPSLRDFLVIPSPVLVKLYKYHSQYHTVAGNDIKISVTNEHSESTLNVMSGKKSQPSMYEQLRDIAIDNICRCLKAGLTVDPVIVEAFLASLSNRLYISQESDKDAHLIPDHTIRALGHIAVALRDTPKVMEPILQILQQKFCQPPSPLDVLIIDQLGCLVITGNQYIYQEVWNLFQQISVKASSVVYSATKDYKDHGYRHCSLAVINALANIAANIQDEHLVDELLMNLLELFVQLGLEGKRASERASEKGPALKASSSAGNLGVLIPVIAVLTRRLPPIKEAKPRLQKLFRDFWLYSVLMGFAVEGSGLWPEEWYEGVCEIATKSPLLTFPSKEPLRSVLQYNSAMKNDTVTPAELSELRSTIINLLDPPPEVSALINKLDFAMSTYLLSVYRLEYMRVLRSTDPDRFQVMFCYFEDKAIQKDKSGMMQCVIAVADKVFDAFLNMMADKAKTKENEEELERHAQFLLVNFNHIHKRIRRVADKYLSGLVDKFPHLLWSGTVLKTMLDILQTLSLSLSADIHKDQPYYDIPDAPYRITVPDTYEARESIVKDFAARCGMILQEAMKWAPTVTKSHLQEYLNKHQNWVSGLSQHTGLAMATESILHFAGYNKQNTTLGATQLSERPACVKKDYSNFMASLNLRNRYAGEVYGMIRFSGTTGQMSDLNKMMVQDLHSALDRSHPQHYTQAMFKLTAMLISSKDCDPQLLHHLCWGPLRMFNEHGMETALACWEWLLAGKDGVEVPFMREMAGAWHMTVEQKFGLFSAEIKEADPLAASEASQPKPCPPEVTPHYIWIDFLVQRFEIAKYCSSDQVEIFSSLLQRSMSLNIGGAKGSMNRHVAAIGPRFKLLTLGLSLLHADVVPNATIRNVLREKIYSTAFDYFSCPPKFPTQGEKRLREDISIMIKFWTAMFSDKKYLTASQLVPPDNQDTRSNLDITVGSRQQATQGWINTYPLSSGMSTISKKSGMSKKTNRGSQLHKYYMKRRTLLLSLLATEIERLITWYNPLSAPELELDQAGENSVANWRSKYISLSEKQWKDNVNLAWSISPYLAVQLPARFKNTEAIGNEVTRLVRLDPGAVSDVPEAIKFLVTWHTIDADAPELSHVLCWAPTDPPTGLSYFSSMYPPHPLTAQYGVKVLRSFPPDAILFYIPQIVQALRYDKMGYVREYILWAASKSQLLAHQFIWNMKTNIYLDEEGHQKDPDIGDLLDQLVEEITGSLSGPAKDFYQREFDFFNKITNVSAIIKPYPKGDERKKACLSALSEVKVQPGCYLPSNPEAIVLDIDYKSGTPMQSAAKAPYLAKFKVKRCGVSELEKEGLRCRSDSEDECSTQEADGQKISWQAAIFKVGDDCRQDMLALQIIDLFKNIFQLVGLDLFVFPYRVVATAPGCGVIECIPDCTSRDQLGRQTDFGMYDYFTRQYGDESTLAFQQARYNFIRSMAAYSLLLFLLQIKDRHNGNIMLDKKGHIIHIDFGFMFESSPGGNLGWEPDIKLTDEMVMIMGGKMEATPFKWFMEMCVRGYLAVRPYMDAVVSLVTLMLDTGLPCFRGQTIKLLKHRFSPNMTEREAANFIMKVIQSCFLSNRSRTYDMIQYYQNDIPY

Target: PIK4CA (UniProt P42356)
Experiment: number of time points (of 5) at which kinase-Nluc abundance scored as decreased, DMSO-normalised (count); higher = more persistent destabilization
Conditions: K562; 2-18 h

SMILES | number of time points
CN1C(=O)[C@@H](NC(=O)c2n[nH]c(Cc3ccccc3)n2)COc2ccccc21 (10 µM) | 0
O=C1NC(=Nc2c(Cl)cccc2Cl)S/C1=C\c1ccc2nccnc2c1 (2.5 µM) | 0
Cc1cccc(-c2[nH]c(C(C)(C)C)nc2-c2ccc3nccnc3c2)n1 (10 µM) | 0
O=C(Nc1cccc(C(F)(F)F)c1)c1cccc2cc(Oc3cc(CO)ncn3)ccc12 (10 µM) | 0
CNc1cc(Nc2cccn(-c3ccccn3)c2=O)nn2c(C(=O)N[C@@H]3C[C@@H]3F)cnc12 (2.5 µM) | 0
Cc1ccn2c(C(=O)C(=O)c3ccccc3)c(-c3ccccc3)nc2c1 (10 µM) | 0
COc1cc(N2CCOCC2)ccc1Nc1ncc(Cl)c(Nc2ccccc2NS(C)(=O)=O)n1 (2.5 µM) | 0
O=C(NC1CCOCC1)c1ccc(-c2cc(-c3c[nH]nc3-c3ccccn3)ccn2)cc1 (10 µM) | 0
O=C1NC(=O)/C(=C/c2ccc3nccc(-c4ccncc4)c3c2)S1 (10 µM) | 0
Cc1ncc(NC(=O)NC2c3ccccc3-c3ccccc32)c(-c2ccccc2)n1 (10 µM) | 0
CC(C)C[C@@H](C(=O)Nc1ccn(C[C@@H](O)CO)n1)N1CC(Oc2ccccc2Cl)=CC1=O [Dorzagliatin] (10 µM) | 0
O=C1O[C@H]([C@@H](O)CO)C(O)=C1OP(=O)(O)O [2-Phospho-L-ascorbic acid (trisodium)] (10 µM) | 0
C[C@@H]1CC(=O)c2c(ccc3c2C(=O)c2cccc(O)c2C3=O)C1 [Ochromycinone] (10 µM) | 0
Cc1c(-c2ccc(C(N)=O)c3[nH]c4cc(C(C)(C)O)ccc4c23)cccc1-n1cnc2ccccc2c1=O (2.5 µM) | 0
CC(C)(C)n1nc(Cc2ccccc2O)c2c(N)ncnc21 (10 µM) | 0
C=CC(=O)N1C(=O)CC(c2ccc(F)cc2)Sc2ccccc21 (stereo not drawn) [GSK-3β inhibitor 3] (10 µM) | 0
CCc1ccc(OCC(=O)Nc2ccc(F)c([N+](=O)[O-])c2)cc1 (10 µM) | 0
CN(C)c1nc2c(Br)c(Br)c(Br)c(Br)c2[nH]1 (10 µM) | 0
Nc1ncnc2c1c(-c1ccc(Oc3ccccc3)cc1)nn2C1CCN(CCOCCOCCOc2ccc3c(c2)CN(C2CCC(=O)NC2=O)C3=O)CC1 (centres undefined) (2.5 µM) | 0
Cc1cnc(NC2CCOCC2)nc1-n1cnc(C(=O)N[C@H](CN)c2cc(F)cc(Cl)c2)c1 (10 µM) | 0

SMILES | number of time points
FC(F)(F)c1ccc(/C=C/c2nc(COc3ccc(CCCCn4ccnn4)cc3)co2)cc1 [Mubritinib] (10 µM) | 0
Cc1cc2sc(NC(=O)Cc3ccccc3)nc2cc1Cl (10 µM) | 0
O=C(CNc1cccc(Cl)c1)NC1CCCN(c2ncnc3[nH]ccc23)C1 (centres undefined) (10 µM) | 0
Oc1ccc(/C=C/c2cc(O)cc(F)c2)cc1 [Resveratrol analog 1] (10 µM) | 0
CC/C(=N\NC(=O)c1ccnc(NCCCN2CCOCC2)c1)c1ccc(Cl)cc1O (2.5 µM) | 0
O[C@@H]1CO[C@H]2[C@@H]1OC[C@H]2Oc1nc2nc(-c3ccc(-c4ccccc4)cc3)c(Cl)cc2[nH]1 (10 µM) | 0
Nc1c(C(=O)NCc2ccc(C(=O)NCCCC3CCCCC3)cc2)cnn1-c1ccccc1 (2.5 µM) | 0
Cc1ccc(C(=O)Nc2sc(Nc3ccccc3)nc2C(N)=O)cc1 (10 µM) | 0
COc1cc(N(C)CCN(C)C)c(N)cc1Nc1nccc(-c2cn(C)c3ccccc23)n1 [Mutated EGFR-IN-1] (10 µM) | 0
CCN(CC)c1cc2oc(=O)c(-c3nc4ccccc4o3)cc2cc1C (2.5 µM) | 0
Cn1cc(-c2cnc3cnn(S(=O)(=O)c4cnc5ccc(-c6cnn(C)c6)cn45)c3c2)cn1 [Glumetinib] (10 µM) | 0
Cc1ccc(NC(=O)c2ccnc(C(F)(F)F)c2)cc1-c1cc(OCCO)nc(N2CCOCC2)c1 (10 µM) | 0
C=CC(=O)Nc1cccc(-c2cccc3cnc(Nc4ccc(N5CCN(CCO)CC5)c(F)c4F)nc23)c1 [Olafertinib] (2.5 µM) | 0
CC(C)(C[C@H](N)C(=O)O)C(F)F [NV-5138 (hydrochloride)] (10 µM) | 0
Cc1cc(C)nc(NS(=O)(=O)c2ccc(NC(=S)NC(=O)COc3ccc(Br)cc3Cl)cc2)n1 (2.5 µM) | 0
CC[C@@](C)(Nc1ccnc(-c2c[nH]c3ncccc23)n1)C(=O)NCC(F)(F)F [Decernotinib] (10 µM) | 0
COc1cc2ncnc(-n3nc(-c4ccccn4)nc3N)c2cc1OC (10 µM) | 0
O=C1/C(=C\c2ccc(Cl)cc2)C=C(c2ccccc2)N1c1ccc(O)cc1 (2.5 µM) | 0
Oc1ccc(/C=C/c2cc(O)cc(O)c2)cc1 [Resveratrol] (10 µM) | 0

A portion of the results above, for reference:
SMILES | number of time points
Cn1cc(-c2cnc3cnn(S(=O)(=O)c4cnc5ccc(-c6cnn(C)c6)cn45)c3c2)cn1 [Glumetinib] (10 µM) | 0
Cc1ccc(NC(=O)c2ccnc(C(F)(F)F)c2)cc1-c1cc(OCCO)nc(N2CCOCC2)c1 (10 µM) | 0
